Measurements: article PMC5691037
Results are given in words; binding and its absence hold for the method and conditions named. For some of these results: Binding seen in cells or lysates may run through a third protein. Some binding calls cover weakened binding; strength is not graded here. For some of these results: Tags and fused reporters may be left off the sequences shown.

Sequences of proteins named here, by UniProt entry; tags and fusion partners are left off. A change or cut given only in a name is not applied to a line headed by its entry. Residues count along the entry.
UniProt Q86T03: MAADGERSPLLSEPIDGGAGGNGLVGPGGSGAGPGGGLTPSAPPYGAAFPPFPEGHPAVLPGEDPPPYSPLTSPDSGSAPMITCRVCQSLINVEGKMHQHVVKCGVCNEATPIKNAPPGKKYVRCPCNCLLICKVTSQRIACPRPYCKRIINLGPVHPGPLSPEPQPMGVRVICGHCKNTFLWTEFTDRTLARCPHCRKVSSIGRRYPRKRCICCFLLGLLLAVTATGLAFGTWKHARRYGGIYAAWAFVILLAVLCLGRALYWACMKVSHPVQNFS
GFP-TMEM55B CD (cytosolic domain): residues 1-207 of Q86T03
UniProt Q8N4L2: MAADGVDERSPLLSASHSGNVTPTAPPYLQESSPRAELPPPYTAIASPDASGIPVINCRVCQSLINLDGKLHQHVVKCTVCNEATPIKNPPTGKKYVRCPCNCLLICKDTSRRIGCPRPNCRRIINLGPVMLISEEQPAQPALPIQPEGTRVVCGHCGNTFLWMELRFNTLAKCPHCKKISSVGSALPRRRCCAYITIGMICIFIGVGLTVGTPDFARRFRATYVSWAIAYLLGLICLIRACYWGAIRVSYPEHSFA
GFP-TMEM55A CD: residues 1-181 of Q8N4L2

Tests used:
[1] = target: GFP-TMEM55B (in U2OS cells) (human) (UniProt Q86T03); test: SDS-PAGE and immunoblot of cell lysate; U2OS cells expressing GFP-TMEM55B, untreated or treated with 150 µM NaAsO2; SDS-PAGE under reducing conditions
GFP-LAMP-1 = target: T1, GFP-LAMP-1 (UniProt P11279); test: pull-down; GFP pull-down on GFP-nanobody beads (Chromotek) from lysates of transfected ARPE-19 cells, immunoblot; 25 mM Tris-HCl pH 7.5, 300 mM NaCl, 5 mM EDTA, 1% Triton X-100, 2 h at 4 °C
T1 sequence: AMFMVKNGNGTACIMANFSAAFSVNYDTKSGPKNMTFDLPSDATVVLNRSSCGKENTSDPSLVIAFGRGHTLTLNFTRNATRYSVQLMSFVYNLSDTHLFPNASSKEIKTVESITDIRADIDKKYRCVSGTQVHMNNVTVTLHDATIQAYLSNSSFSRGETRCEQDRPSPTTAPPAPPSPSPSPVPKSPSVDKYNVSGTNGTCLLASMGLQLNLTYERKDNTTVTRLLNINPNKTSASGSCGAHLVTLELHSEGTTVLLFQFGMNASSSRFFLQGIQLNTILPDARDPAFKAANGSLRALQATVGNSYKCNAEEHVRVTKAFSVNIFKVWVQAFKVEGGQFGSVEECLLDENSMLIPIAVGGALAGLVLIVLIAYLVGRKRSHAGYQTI

GFP-TMEM55A FL (human) = GFP-TMEM55A FL (human) (UniProt Q8N4L2); test: as above
GFP-TMEM55A CD (human) = GFP-TMEM55A CD (human) (UniProt Q8N4L2); test: as above
[2] = target: GFP-TMEM55B CD (cytosolic domain) (human) (UniProt Q86T03); test: as above
[3] = target: GFP-TMEM55B FL (full length) (human) (UniProt Q86T03); test: as above

## GFP-TMEM55B (in U2OS cells) (from UniProt Q86T03 1-277)
[1]
  binding: binds

## 3xHA-TMEM55B (from UniProt Q86T03 1-277)
GFP-LAMP-1
  binding: no binding

B1: JIP4 (endogenous) (protein, UniProt O60271 1-1321)
chain: MELEDGVVYQEEPGGSGAVMSERVSGLAGSIYREFERLIGRYDEEVVKELMPLVVAVLENLDSVFAQDQEHQVELELLRDDNEQLITQYEREKALRKHAEEKFIEFEDSQEQEKKDLQTRVESLESQTRQLELKAKNYADQISRLEEREAELKKEYNALHQRHTEMIHNYMEHLERTKLHQLSGSDQLESTAHSRIRKERPISLGIFPLPAGDGLLTPDAQKGGETPGSEQWKFQELSQPRSHTSLKVSNSPEPQKAVEQEDELSDVSQGGSKATTPASTANSDVATIPTDTPLKEENEGFVKVTDAPNKSEISKHIEVQVAQETRNVSTGSAENEEKSEVQAIIESTPELDMDKDLSGYKGSSTPTKGIENKAFDRNTESLFEELSSAGSGLIGDVDEGADLLGMGREVENLILENTQLLETKNALNIVKNDLIAKVDELTCEKDVLQGELEAVKQAKLKLEEKNRELEEELRKARAEAEDARQKAKDDDDSDIPTAQRKRFTRVEMARVLMERNQYKERLMELQEAVRWTEMIRASRENPAMQEKKRSSIWQFFSRLFSSSSNTTKKPEPPVNLKYNAPTSHVTPSVKKRSSTLSQLPGDKSKAFDFLSEETEASLASRREQKREQYRQVKAHVQKEDGRVQAFGWSLPQKYKQVTNGQGENKMKNLPVPVYLRPLDEKDTSMKLWCAVGVNLSGGKTRDGGSVVGASVFYKDVAGLDTEGSKQRSASQSSLDKLDQELKEQQKELKNQEELSSLVWICTSTHSATKVLIIDAVQPGNILDSFTVCNSHVLCIASVPGARETDYPAGEDLSESGQVDKASLCGSMTSNSSAETDSLLGGITVVGCSAEGVTGAATSPSTNGASPVMDKPPEMEAENSEVDENVPTAEEATEATEGNAGSAEDTVDISQTGVYTEHVFTDPLGVQIPEDLSPVYQSSNDSDAYKDQISVLPNEQDLVREEAQKMSSLLPTMWLGAQNGCLYVHSSVAQWRKCLHSIKLKDSILSIVHVKGIVLVALADGTLAIFHRGVDGQWDLSNYHLLDLGRPHHSIRCMTVVHDKVWCGYRNKIYVVQPKAMKIEKSFDAHPRKESQVRQLAWVGDGVWVSIRLDSTLRLYHAHTYQHLQDVDIEPYVSKMLGTGKLGFSFVRITALMVSCNRLWVGTGNGVIISIPLTETNKTSGVPGNRPGSVIRVYGDENSDKVTPGTFIPYCSMAHAQLCFHGHRDAVKFFVAVPGQVISPQSSSSGTDLTGDKAGPSAQEPGSQTPLKSMLVISGGEGYIDFRMGDEGGESELLGEDLPLEPSVTKAERSHLIVWQVMYGNE
GFP-TMEM55A FL (human)
  binding: no binding
GFP-TMEM55A CD (human)
  binding: no binding
[2]
  binding: binds
GFP-LAMP-1
  binding: no binding
[3]
  binding: binds
